# Test results as given in US6274627A, “Conjugates of dithiocarbamate disulfides with pharmacologically active agents and uses therefor” (Medinox, Inc., priority 1999, dated 2001).
# Assay: Pharmacokinetics of naproxen in plasma following intravenous administration of PDD-Naproxen or naproxen in rats
# Assay type: in vivo
# Conditions: rat, 0.55 mg/kg
compound,measurement,value
"COc1ccc2cc([C@H](C)C(=O)O)ccc2c1 [Naproxen, (S)-(+)-methoxy-α-methyl-2-naphthaleneacetic acid, reference compound]",AUC(0-inf),243 ng·h/mL
